These are yes or no findings as the source states them, for the method shown. Some results given as binding are weak or reduced against the parent protein; the word gives no strength.
Target: PrP^Sc of CWD-infected elk brain (CWD-Elk prions, strain CWD2) (elk (endogenous in elk brain)) (UniProt P67986)
Test: sedimentation velocity ultracentrifugation on an iodixanol gradient

The chains behind the UniProt entries cited, without tags or fusion partners. Residues count along the entry.
UniProt P67986, residues 25-233: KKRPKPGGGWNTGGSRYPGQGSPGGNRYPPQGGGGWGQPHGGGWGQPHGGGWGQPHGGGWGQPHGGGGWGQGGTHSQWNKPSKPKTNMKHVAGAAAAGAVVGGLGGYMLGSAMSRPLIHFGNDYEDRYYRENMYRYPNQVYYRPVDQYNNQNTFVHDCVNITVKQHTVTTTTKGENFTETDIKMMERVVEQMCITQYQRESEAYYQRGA

With “PrP^Sc of CWD-infected elk brain (CWD-Elk prions, strain CWD2) (from UniProt P67986 25-233)” the binding was “binds”.

Source: paper PMC10645910
